Results as given in publication PMC11505976.
No constants are given. Whether binding was seen depends on the method and setting. Some binding calls cover weakened binding; strength is not graded here. Sequences can lack the tags named with a protein.

Molecular target: T1, His-tagged CD14 (UniProt P08571)
T1 sequence: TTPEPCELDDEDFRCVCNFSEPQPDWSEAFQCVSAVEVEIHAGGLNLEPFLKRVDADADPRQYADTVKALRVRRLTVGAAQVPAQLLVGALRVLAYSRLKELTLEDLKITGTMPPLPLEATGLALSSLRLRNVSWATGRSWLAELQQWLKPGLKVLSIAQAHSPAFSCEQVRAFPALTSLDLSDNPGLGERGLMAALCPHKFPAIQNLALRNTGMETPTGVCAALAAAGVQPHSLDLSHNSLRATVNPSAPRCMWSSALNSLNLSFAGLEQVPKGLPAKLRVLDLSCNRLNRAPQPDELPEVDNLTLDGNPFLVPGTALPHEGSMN
Assay: co-IP; anti-His antibody on Protein A/G agarose beads; His-tagged CD14 0.25 ug with or without sLN 1.0 ug for 1 h; beads washed, boiled, dot-blot probed with anti-sLN antibody; both purified

- binding: binds
B1: Short Link N (peptide)
peptide: DHLSDNYT
